In US20240175877A1:
These are yes or no findings as the source states them, for the method shown. Some binding calls cover weakened binding; strength is not graded here.

Protein sequences, listed by entry. Tags and fused reporters are not part of them. Lines headed by an entry give the natural chain unless they say otherwise; changes in a name come on top.
UniProt Q6PSU2: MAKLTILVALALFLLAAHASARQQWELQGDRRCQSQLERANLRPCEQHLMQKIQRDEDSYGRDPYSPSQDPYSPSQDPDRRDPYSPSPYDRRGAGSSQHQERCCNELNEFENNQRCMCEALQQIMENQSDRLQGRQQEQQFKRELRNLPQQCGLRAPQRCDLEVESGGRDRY

Molecular target: Ara h 2 (peanut) (UniProt Q6PSU2)
Assay: epitope bin summary

binding: binds
B1: 15FU1P3A6 (antibody, IgG1, V domains shown)
VH: LVESGGGSVPPGGSLRLSCVASGVYFSDWAMNWVRQAPGKGLEWISSISGRGANIYYAESVRGRFTTSRDNSQNTVFLDLTDLTVEDTALYFCAKTPLLTRAFDVWGQGTAVTVSA
VL: DIVMTQSPSTLSASVGDRVTITCRASQSVNTWLAWYQQKPGKAPRLLIYKVSTLESGVPSRFSGSGSGTEFTLTISSLQPDDFATYYCQQYNIDSRYSFGPGTKVEIK
